Experimental data taken from paper PMC5564784.
Results are given in words; binding and its absence hold for the method and conditions named. In cells and extracts the contact can be indirect. Some binding calls cover weakened binding; strength is not graded here.

Protein sequences, listed by entry. Tags and fused reporters are not part of them.
UniProt Q15562: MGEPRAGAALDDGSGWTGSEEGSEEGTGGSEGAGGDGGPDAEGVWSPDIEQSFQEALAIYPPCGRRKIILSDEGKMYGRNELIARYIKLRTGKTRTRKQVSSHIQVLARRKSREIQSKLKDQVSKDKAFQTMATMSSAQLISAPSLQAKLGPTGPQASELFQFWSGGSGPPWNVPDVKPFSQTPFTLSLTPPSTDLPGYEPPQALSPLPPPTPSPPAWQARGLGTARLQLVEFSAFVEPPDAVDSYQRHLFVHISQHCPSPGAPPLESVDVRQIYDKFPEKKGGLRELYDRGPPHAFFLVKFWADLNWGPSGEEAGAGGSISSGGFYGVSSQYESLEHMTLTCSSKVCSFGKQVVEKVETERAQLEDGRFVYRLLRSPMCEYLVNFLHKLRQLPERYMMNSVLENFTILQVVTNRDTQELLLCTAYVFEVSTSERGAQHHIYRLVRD
UniProt P46937: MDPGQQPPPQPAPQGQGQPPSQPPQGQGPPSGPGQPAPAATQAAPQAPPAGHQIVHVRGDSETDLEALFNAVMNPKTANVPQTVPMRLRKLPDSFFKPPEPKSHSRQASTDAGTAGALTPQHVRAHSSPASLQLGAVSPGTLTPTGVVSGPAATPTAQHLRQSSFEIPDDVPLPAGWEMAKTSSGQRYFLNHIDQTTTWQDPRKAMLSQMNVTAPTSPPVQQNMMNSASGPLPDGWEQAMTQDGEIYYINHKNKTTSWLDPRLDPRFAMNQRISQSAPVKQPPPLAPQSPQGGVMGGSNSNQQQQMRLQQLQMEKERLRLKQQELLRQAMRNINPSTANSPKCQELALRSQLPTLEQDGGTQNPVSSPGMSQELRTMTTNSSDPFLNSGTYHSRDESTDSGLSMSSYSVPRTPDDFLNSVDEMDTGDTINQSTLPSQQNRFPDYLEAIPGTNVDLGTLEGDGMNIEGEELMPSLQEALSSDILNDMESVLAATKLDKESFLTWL

T1: IKBKE (human (endogenous in U87-MG)) (UniProt Q14164)
T1 sequence: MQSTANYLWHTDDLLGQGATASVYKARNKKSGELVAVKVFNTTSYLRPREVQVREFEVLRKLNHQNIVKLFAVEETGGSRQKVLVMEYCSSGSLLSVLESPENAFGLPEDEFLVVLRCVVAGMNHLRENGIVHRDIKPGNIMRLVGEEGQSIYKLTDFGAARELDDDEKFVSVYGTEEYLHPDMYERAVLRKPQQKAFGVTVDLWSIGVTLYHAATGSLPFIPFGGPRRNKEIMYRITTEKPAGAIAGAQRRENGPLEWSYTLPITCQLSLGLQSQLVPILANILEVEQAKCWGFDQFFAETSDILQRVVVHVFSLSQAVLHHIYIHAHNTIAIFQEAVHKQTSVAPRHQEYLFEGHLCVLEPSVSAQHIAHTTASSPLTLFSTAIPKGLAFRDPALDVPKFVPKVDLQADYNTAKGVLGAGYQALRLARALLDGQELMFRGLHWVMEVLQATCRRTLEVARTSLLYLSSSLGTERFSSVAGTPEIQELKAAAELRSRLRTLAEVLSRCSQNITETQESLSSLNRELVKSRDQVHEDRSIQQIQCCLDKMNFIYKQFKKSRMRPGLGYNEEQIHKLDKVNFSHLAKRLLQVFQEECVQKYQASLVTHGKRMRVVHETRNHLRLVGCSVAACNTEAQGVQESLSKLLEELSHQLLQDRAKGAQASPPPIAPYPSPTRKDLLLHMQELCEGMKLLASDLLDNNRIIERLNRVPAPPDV


Key:
Assay in all cases: co-IP; endogenous co-immunoprecipitation from U87-MG extracts; one protein immunoprecipitated with its antibody, the other detected by immunoblot; protocol as described in ref. 45
[1] = biological target: T1, IKBKE (human (endogenous in U87-MG))
[2] = biological target: TEA domain family member 2 (TEAD2) (human (endogenous in U87-MG)) (UniProt Q15562)
[3] = biological target: Yes-associated protein 1 (YAP1) (human (endogenous in U87-MG)) (UniProt P46937)

Molecule	binding [1]	binding [2]	binding [3]
Yes-associated protein 1 (YAP1) (from UniProt P46937 1-504)	binds		
IKBKE (protein, UniProt Q14164 1-716) MQSTANYLWHTDDLLGQGATASVYKARNKKSGELVAVKVFNTTSYLRPREVQVREFEVLRKLNHQNIVKLFAVEETGGSRQKVLVMEYCSSGSLLSVLESPENAFGLPEDEFLVVLRCVVAGMNHLRENGIVHRDIKPGNIMRLVGEEGQSIYKLTDFGAARELDDDEKFVSVYGTEEYLHPDMYERAVLRKPQQKAFGVTVDLWSIGVTLYHAATGSLPFIPFGGPRRNKEIMYRITTEKPAGAIAGAQRRENGPLEWSYTLPITCQLSLGLQSQLVPILANILEVEQAKCWGFDQFFAETSDILQRVVVHVFSLSQAVLHHIYIHAHNTIAIFQEAVHKQTSVAPRHQEYLFEGHLCVLEPSVSAQHIAHTTASSPLTLFSTAIPKGLAFRDPALDVPKFVPKVDLQADYNTAKGVLGAGYQALRLARALLDGQELMFRGLHWVMEVLQATCRRTLEVARTSLLYLSSSLGTERFSSVAGTPEIQELKAAAELRSRLRTLAEVLSRCSQNITETQESLSSLNRELVKSRDQVHEDRSIQQIQCCLDKMNFIYKQFKKSRMRPGLGYNEEQIHKLDKVNFSHLAKRLLQVFQEECVQKYQASLVTHGKRMRVVHETRNHLRLVGCSVAACNTEAQGVQESLSKLLEELSHQLLQDRAKGAQASPPPIAPYPSPTRKDLLLHMQELCEGMKLLASDLLDNNRIIERLNRVPAPPDV		binds	binds
